Data as given in patent publication US12410152B2, “Oxazole and thioazole-type cullin ring ubiquitin ligase compounds and uses thereof” (Proxygen GmbH, priority 2019, dated 2025).
This continues a long series; more values of the same kind are listed elsewhere.

Tested on: KBM7 WT cells (global proteome)
Assay: Quantitative expression proteomics (TMT isobaric tagging), drug vs DMSO
Format: cell-based, human
From the text: The mechanism by which the assayed molecules re-program a functional CRL4B complex based on the data shown could be that drug binding to CUL4B recruits a neo-substrate directly to the cullin backbone. Alternatively, drug binding could stabilize CUL4B function to boost time intervals where a functionally competent CUL4B complexes can be formed. Here, the word “functional” implies that the CUL4B backbone of this complex needs to be neddylated, and a CUL4B associated E2 ubiquitin-conjugating enzyme (UBE2G1) needs to be bound. FIG. 9 outlines one possible mechanism. Both predicted mechanisms of action would result in a functionally altered CRL4B complex, and thus an altered stability of drug-induced (neo-) substrates. In order to identify target proteins with a decreased abundance or, in other words, target proteins that become degraded by CRL4B after drug treatment, global proteome composition was measured using quantitative expression proteomics (TMT-labeling). In brief, KBM7 cells were drug treated for 12 hours, lysed, and subjected to isobaric tagging. Ensuing proteomics analysis quantified a total of 7,903 proteins at a minimum spectral count of 2. […] Data on essentiality are taken from Hart et al., G3, August 2017 (PMID: 28655737).
50×10^6 KBM7^WT cells per condition were collected, washed four times with ice-cold PBS, the supernatant aspirated and pellets snap-frozen in liquid N2. Each washed cell pellet was lysed separately in 40 μL of freshly prepared lysis buffer as previously described (see Mayor-Ruiz et al., Mol Cell 2019)
Offline Fractionation via RP-HPLC at high pH and 2D-RP/RP Liquid Chromatography Mass Spectrometry were performed as previously described (see Mayor-Ruiz et al., Mol Cell 2019).
Acquired raw data files were processed using the Proteome Discoverer 2.2.0 platform, utilizing the Sequest HT database search engine and Percolator validation software node (V3.04) to remove false positives with a false discovery rate (FDR) of 1% on peptide and protein level under strict conditions. Searches were performed with full tryptic digestion against the human SwissProt database v2017.06 with up to two allowed miscleavage sites. Oxidation (+15.9949 Da) of methionine was set as variable modification, whilst carbamidomethylation (+57.0214 Da) of cysteine residues and TMT 6-plex labelling of peptide N-termini and lysine residues were set as fixed modifications. Data was searched with mass tolerances of ±10 ppm and ±0.02 Da on the precursor and fragment ions, respectively. Results were filtered to include peptide spectrum matches (PSMs) with Sequest HT cross-correlation factor (Xcorr) scores of […] and high peptide confidence assigned by Percolator. MS^2 signal-to-noise values (S/N) values of TMT reporter ions were used to estimate peptide/protein abundance changes. PSMs with precursor isolation interference values of ≥ 50% and average TMT-reporter ion S/N≤10 were excluded from quantitation. Only unique peptides were used for TMT quantitation as well as for TOP3 label-free quantitation. Isotopic impurity correction and TMT channel-normalization based on total peptide amount were applied. For statistical analysis and p-value calculation, the integrated ANOVA hypothesis test was used. TMT ratios with p-values below 0.01 were considered as significant. Only proteins with >1 peptide detected and >1 unique peptide detected were considered for further analysis. For the calling of destabilized proteins, a log 2 fold change threshold (drug/DMSO) of −0.3 was applied.
Comparison of overall proteome-wide changes in KBM7 cells treated with IC020772.1 (2.5 μM), IC021313.2 (7 μM) or T6938051 (3.5 μM) for 5 h and 12h, using quantitative proteomics based on isobaric tagging.
The protein names in Table 4, Table 5 and Table 6 refer to the protein names as provided by HUGO Gene Nomenclature Committee (HGNC) database. […]

O=C(CSc1nnc2c(n1)[nH]c1ccccc12)Nc1ccc(Cl)cn1 [IC020772.1]
log2FC (IC020772.1/DMSO) (OCLN (Q16625-1)): −0.4403 | log2FC (IC020772.1/DMSO) (OFD1 (O75665-1)): −0.3659 | log2FC (IC020772.1/DMSO) (PARD6B (Q9BYG5-1)): −0.415 | log2FC (IC020772.1/DMSO) (PCNX3 (Q9H6A9-1)): −0.4759 | log2FC (IC020772.1/DMSO) (PDK2 (Q15119-1)): −0.3789 | log2FC (IC020772.1/DMSO) (PHF8 (Q9UPP1-1)): −0.3771 | log2FC (IC020772.1/DMSO) (PIAS1 (O75925-2)): −0.3733 | log2FC (IC020772.1/DMSO) (PLS1 (Q14651)): −0.4403 | log2FC (IC020772.1/DMSO) (POC5 (Q8NA72-1)): −0.3346 | log2FC (IC020772.1/DMSO) (POLR3G (O15318)): −0.4131 | log2FC (IC020772.1/DMSO) (POLR21 (P36954)): −0.3733 | log2FC (IC020772.1/DMSO) (PPFIA1 (Q13136-1)): −0.3346 | log2FC (IC020772.1/DMSO) (PPP1R10 (Q96QC0)): −0.3419 | log2FC (IC020772.1/DMSO) (PSPH (P78330)): −0.482 | log2FC (IC020772.1/DMSO) (PTPN22 (Q9Y2R2-1)): −0.3219 | log2FC (IC020772.1/DMSO) (PVR (P15151-1)): −0.4055 | log2FC (IC020772.1/DMSO) (PYROXD1 (Q8WU10-1)): −0.3201 | log2FC (IC020772.1/DMSO) (QRICH1 (Q2TAL8)): −0.3752 | log2FC (IC020772.1/DMSO) (QSOX1 (O00391-1)): −0.3752 | log2FC (IC020772.1/DMSO) (RAB3A (P20336)): −0.4074 | log2FC (IC020772.1/DMSO) (RABGGTB (P53611)): −0.3346 | log2FC (IC020772.1/DMSO) (RAD51 (Q06609-1)): −0.8211 | log2FC (IC020772.1/DMSO) (RAD54B (Q9Y620-1)): −0.6758 | log2FC (IC020772.1/DMSO) (RBM23 (Q86U06-1)): −0.9269 | log2FC (IC020772.1/DMSO) (RBX1 (P62877)): −0.3201 | log2FC (IC020772.1/DMSO) (REEP5 (Q00765-1)): −0.3771 | log2FC (IC020772.1/DMSO) (RFWD3 (Q6PCD5)): −0.6758 | log2FC (IC020772.1/DMSO) (RFXANK (O14593-1)): −0.3437 | log2FC (IC020772.1/DMSO) (RGS18 (Q9NS28)): −0.3346 | log2FC (IC020772.1/DMSO) (RIOK1 (Q9BRS2)): −0.4131 | log2FC (IC020772.1/DMSO) (RNF135 (Q8IUD6-1)): −0.4501 | log2FC (IC020772.1/DMSO) (RNF141 (Q8WVD5-1)): −0.3696 | log2FC (IC020772.1/DMSO) (RNF181 (Q9P0P0)): −0.9269 | log2FC (IC020772.1/DMSO) (ROBO1 (Q9Y6N7-2)): −0.4035 | log2FC (IC020772.1/DMSO) (RPF1 (Q9H9Y2)): −0.4501 | log2FC (IC020772.1/DMSO) (RRM2 (P31350-2)): −0.7984 | log2FC (IC020772.1/DMSO) (RWDD1 (Q9H446-1)): −0.3364 | log2FC (IC020772.1/DMSO) (S1PR4 (O95977)): −0.3771 | log2FC (IC020772.1/DMSO) (SATB2 (Q9UPW6-1)): −0.4481 | log2FC (IC020772.1/DMSO) (SATBI (Q01826-2)): −0.4461 | log2FC (IC020772.1/DMSO) (SC5D (O75845)): −0.3401 | log2FC (IC020772.1/DMSO) (SDF2 (Q99470)): −0.3733 | log2FC (IC020772.1/DMSO) (SETDB2 (Q96T68-1)): −0.4383 | log2FC (IC020772.1/DMSO) (SETX (Q7Z333-4)): −0.3201 | log2FC (IC020772.1/DMSO) (SGF29 (Q96ES7)): −0.4016 | log2FC (IC020772.1/DMSO) (SH3BP5 (O60239-1)): −0.3789 | log2FC (IC020772.1/DMSO) (SIGLEC6 (O43699-1)): −0.685 | log2FC (IC020772.1/DMSO) (SIGLEC12 (Q96PQ1-1)): −0.8059 | log2FC (IC020772.1/DMSO) (SIX3 (O95343)): −0.4501 | log2FC (IC020772.1/DMSO) (SLAIN1 (Q8ND83-1)): −0.6804 | log2FC (IC020772.1/DMSO) (SLC4A7 (Q9Y6M7-7)): −0.3978 | log2FC (IC020772.1/DMSO) (SLC7A2 (P52569-3)): −0.8009 | log2FC (IC020772.1/DMSO) (SLC7A6 (Q92536)): −0.3437 | log2FC (IC020772.1/DMSO) (SLC20A2 (Q08357)): −0.3733 | log2FC (IC020772.1/DMSO) (SLC29A1 (Q99808-2)): −0.8288 | log2FC (IC020772.1/DMSO) (SLC29A2 (Q14542-1)): −0.482 | log2FC (IC020772.1/DMSO) (SLC38A2 (Q96QD8-1)): −0.6943 | log2FC (IC020772.1/DMSO) (SLC38A5 (Q8WUX1-1)): −0.4074 | log2FC (IC020772.1/DMSO) (SLC39A10 (Q9ULF5-1)): −0.4364 | log2FC (IC020772.1/DMSO) (SLC39A14 (Q15043-1)): −0.6943 | log2FC (IC020772.1/DMSO) (SLC43A1 (O75387-2)): −0.3201 | log2FC (IC020772.1/DMSO) (SMG9 (Q9H0W8-1)): −0.4055 | log2FC (IC020772.1/DMSO) (SNAPC1 (Q16533)): −0.3401 | log2FC (IC020772.1/DMSO) (SNX10 (Q9Y5X0-1)): −0.4383 | log2FC (IC020772.1/DMSO) (SP2 (Q02086-1)): −0.4093 | log2FC (IC020772.1/DMSO) (SPINT2 (O43291-1)): −0.3419 | log2FC (IC020772.1/DMSO) (SUFU (Q9UMX1-1)): −0.8625 | log2FC (IC020772.1/DMSO) (SUGPI (Q8IWZ8-1)): −0.3715 | log2FC (IC020772.1/DMSO) (SUMO2 (P61956-1)): −0.3997 | log2FC (IC020772.1/DMSO) (SURF6 (O75683)): −0.8391 | log2FC (IC020772.1/DMSO) (TADA2A (O75478-1)): −0.3364 | log2FC (IC020772.1/DMSO) (TAF8 (Q7Z7C8-2)): −0.4442 | log2FC (IC020772.1/DMSO) (TCEANC2 (Q96MN5-1)): −0.3364 | log2FC (IC020772.1/DMSO) (TFDP1 (Q14186-1)): −0.3789 | log2FC (IC020772.1/DMSO) (TIPIN (Q9BVW5)): −0.4403 | log2FC (IC020772.1/DMSO) (TK1 (P04183)): −0.4403 | log2FC (IC020772.1/DMSO) (TMEM59 (Q9BXS4)): −0.4403 | log2FC (IC020772.1/DMSO) (TMEM131L (A2VDJ0-5)): −0.8262 | log2FC (IC020772.1/DMSO) (TNFAIP8L2 (Q6P589)): −0.8262 | log2FC (IC020772.1/DMSO) (TNFRSF8 (P28908-1)): −0.9324 | log2FC (IC020772.1/DMSO) (TOX (O94900)): −0.8836 | log2FC (IC020772.1/DMSO) (TRIM11 (Q96F44-1)): −0.4501 | log2FC (IC020772.1/DMSO) (TSR3 (Q9UJK0)): −0.4759 | log2FC (IC020772.1/DMSO) (TTC28 (Q96AY4)): −0.3771 | log2FC (IC020772.1/DMSO) (TTF2 (Q9UNY4-1)): −0.4131 | log2FC (IC020772.1/DMSO) (TYMS (P04818-1)): −0.3997 | log2FC (IC020772.1/DMSO) (UBE2B (P63146)): −0.4521 | log2FC (IC020772.1/DMSO) (UCK1 (Q9HA47-4)): −0.3437 | log2FC (IC020772.1/DMSO) (UHRF1 (Q96T88-2)): −0.8599 | log2FC (IC020772.1/DMSO) (USP11 (P51784)): −0.3383 | log2FC (IC020772.1/DMSO) (USP37 (Q86T82-1)): −0.8443 | log2FC (IC020772.1/DMSO) (UTP14A (Q9BVJ6-1)): −0.3752
